In US20160184454A1, “RAB7L1 INTERACTS WITH LRRK2 TO MODIFY INTRANEURONAL PROTEIN SORTING AND PARKINSON'S DISEASE RISK” (THE TRUSTEES OF COLUMBIA UNIVERSITY IN THE CITY OF NEW YORK, priority 2013, published 2016) one finds binding data, which are given here for 5 molecules.

By UniProt entry, the sequences of proteins in these tests, tags left out. Where a name states a change or a piece, a line headed by the entry shows the natural chain unless it says otherwise.
UniProt Q5S007: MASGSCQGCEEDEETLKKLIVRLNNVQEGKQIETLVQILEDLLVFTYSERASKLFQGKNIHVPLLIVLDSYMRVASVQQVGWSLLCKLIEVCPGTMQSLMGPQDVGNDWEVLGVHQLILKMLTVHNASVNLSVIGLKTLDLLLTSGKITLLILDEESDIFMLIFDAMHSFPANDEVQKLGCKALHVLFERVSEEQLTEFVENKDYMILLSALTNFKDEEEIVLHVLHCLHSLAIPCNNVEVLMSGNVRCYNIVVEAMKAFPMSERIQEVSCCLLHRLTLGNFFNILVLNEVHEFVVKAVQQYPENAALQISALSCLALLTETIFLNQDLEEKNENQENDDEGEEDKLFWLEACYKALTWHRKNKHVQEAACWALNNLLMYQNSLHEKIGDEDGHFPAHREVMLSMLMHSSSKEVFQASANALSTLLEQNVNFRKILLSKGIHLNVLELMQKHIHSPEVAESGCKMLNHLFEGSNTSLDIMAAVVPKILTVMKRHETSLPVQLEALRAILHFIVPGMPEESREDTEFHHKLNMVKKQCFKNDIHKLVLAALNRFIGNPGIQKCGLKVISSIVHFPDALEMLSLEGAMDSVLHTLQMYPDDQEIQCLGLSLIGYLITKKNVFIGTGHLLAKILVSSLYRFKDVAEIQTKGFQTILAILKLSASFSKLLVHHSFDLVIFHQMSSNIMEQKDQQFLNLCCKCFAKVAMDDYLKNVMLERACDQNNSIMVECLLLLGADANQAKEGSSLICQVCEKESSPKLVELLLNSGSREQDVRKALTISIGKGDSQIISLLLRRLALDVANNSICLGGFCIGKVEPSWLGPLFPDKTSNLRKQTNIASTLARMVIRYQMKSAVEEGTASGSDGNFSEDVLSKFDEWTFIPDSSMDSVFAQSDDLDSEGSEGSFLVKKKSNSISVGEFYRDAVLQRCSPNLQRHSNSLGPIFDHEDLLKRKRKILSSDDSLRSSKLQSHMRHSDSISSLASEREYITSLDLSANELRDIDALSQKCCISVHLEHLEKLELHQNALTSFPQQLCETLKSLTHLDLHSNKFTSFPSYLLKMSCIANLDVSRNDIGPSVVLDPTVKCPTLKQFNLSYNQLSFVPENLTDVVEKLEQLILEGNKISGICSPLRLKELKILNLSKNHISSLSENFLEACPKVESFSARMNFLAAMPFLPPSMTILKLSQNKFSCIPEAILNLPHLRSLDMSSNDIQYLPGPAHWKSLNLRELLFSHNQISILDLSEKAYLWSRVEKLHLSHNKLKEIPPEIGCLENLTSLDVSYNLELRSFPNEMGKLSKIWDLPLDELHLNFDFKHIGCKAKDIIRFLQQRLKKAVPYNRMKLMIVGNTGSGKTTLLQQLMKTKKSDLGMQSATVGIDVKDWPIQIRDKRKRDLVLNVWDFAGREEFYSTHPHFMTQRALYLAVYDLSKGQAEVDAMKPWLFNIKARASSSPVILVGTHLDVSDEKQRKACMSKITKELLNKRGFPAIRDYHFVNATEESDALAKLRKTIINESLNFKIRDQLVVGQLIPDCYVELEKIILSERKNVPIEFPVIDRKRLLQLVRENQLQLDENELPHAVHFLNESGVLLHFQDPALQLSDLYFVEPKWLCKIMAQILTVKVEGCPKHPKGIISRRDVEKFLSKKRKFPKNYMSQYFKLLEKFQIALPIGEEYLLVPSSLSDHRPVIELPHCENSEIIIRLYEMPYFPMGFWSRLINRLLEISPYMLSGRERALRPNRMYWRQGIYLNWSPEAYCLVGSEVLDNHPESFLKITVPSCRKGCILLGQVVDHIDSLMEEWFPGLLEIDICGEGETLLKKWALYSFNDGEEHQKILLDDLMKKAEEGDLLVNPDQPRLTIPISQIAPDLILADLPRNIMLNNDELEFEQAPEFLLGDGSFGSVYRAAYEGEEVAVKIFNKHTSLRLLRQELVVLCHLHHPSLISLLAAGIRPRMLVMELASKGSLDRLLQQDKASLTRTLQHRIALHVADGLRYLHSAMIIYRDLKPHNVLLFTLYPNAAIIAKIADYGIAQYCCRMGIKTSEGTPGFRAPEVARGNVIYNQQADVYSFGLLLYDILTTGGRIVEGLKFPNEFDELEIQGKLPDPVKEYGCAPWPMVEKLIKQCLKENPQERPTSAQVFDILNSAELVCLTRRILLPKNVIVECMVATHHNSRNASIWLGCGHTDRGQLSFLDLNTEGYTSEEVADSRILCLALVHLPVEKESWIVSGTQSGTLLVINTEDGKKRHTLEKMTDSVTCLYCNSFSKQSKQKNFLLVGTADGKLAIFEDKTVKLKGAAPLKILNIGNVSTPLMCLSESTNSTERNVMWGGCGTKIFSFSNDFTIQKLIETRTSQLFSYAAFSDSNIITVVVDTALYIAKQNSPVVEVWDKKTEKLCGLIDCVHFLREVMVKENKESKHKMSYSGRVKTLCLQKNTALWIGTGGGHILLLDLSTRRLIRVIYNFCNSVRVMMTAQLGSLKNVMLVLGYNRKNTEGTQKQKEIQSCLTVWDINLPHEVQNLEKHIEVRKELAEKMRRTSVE

No constants are given. Whether binding was seen depends on the method and setting. For part of these data: Binding seen in cells or lysates may run through a third protein. Some entries that bind do so weakly or less than the wild type. For part of these data: Where a sequence is shown, tags or fusion partners need not be part of it.

In experiment [1] the target is T1, GFP-RAB7L1 fusion protein, wild type (N-terminally GFP-tagged rat RAB7L1) (rat) (UniProt Q63481).
T1 sequence (looked up): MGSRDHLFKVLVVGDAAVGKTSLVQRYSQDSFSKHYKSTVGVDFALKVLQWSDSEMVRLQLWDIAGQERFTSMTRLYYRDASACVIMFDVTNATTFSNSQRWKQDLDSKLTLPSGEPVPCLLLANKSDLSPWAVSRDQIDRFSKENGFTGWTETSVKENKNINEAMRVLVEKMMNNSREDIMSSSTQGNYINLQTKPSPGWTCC
The experiment is described as follows: summary of the co-immunoprecipitation studies (discussion).

For experiment [2], the target named is T1, GFP-RAB7L1 fusion protein, wild type (N-terminally GFP-tagged rat RAB7L1) (rat). Put plainly: co-immunoprecipitation with anti-Flag antibody from co-transfected HEK293T lysates, probed for RAB7L1 (GFP).
The target is the same in experiment [3]. Put plainly: co-immunoprecipitation with anti-Flag antibody from co-transfected HEK293T lysates.
Experiment [4] deals with T2, RAB7L1 protein in mouse brain lysate (endogenous) (mouse) (UniProt Q91YQ1).
T2 sequence (looked up): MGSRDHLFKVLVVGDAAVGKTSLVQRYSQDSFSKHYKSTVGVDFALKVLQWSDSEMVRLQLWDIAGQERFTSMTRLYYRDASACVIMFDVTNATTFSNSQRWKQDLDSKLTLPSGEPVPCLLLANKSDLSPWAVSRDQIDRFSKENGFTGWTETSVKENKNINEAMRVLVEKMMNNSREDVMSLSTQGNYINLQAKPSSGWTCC
The experiment is described as follows: immunoprecipitation of LRRK2 with a rabbit monoclonal antibody from transgenic mouse brain lysates, Western blot for RAB7L1.

Experiment [5] has as its target 3×flag (3FL) epitope-tagged LRRK2, wild type [WT] (human) (UniProt Q5S007). Put plainly: co-immunoprecipitation with anti-GFP antibody from co-transfected HEK293T lysates, immunoblot for LRRK2.

In the case of “3×flag (3FL) epitope-tagged LRRK2, wild type [WT] (from UniProt Q5S007 1-2527) (enzyme)”, the binding entry in experiment [1] and in experiment [2] was “binds” each time.

In the case of “3×flag (3FL) epitope-tagged LRRK2 K1906M [KM], kinase-dead variant (from UniProt Q5S007 1-2527) (enzyme)”, in experiment [3], the binding result is given as “binds”.

In the case of “human LRRK2 R1441C, familial PD mutant form (BAC transgene, mouse brain) (from UniProt Q5S007 1-2527) (enzyme)”, the binding result in experiment [4] is listed as “binds”.

As for “3×flag (3FL) epitope-tagged LRRK2 G2019S [GS] (from UniProt Q5S007 1-2527) (enzyme)”, the binding entry in experiment [3] is listed as “binds”.

B1: GFP-RAB7L1 fusion protein, wild type (N-terminally GFP-tagged rat RAB7L1) (enzyme, UniProt Q63481 1-204, looked up, not shown: large carriers)
chain: MGSRDHLFKVLVVGDAAVGKTSLVQRYSQDSFSKHYKSTVGVDFALKVLQWSDSEMVRLQLWDIAGQERFTSMTRLYYRDASACVIMFDVTNATTFSNSQRWKQDLDSKLTLPSGEPVPCLLLANKSDLSPWAVSRDQIDRFSKENGFTGWTETSVKENKNINEAMRVLVEKMMNNSREDIMSSSTQGNYINLQTKPSPGWTCC
Take B1: the binding entry in experiment [5] is recorded as “binds”.
